Results deposited as PubChem BioAssay AID1259308 (NCATS, 2017).
Test: 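Candidate targets for better recombinant protein yield in mammalian cells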 (primary screen). Cell system: human HEK293 embryonic kidney cells stably expressing firefly luciferase (HEK-CMV-Luc2-Hygro). Reagent: single siRNA against human genes, 0.8 pmol siRNA per well. Time to read-out: 72 h. Measured: 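Luciferase light (ONE-Glo) measured on one replicate plate set and viability (CellTiter-Glo) on the other, scaled to a negative control siRNA, with robust z-scores and luciferase per cell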. Direction: total luciferase, z-score and total luciferase, % of control: higher = more reporter protein produced; luciferase per cell, z-score: higher = more reporter output per viable cell; viable cells, % of control: higher = more viable cells. Active means: 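Active when the median/MAD z-score for overall luciferase is greater than 3; a gene was taken forward for validation with new siRNAs if at least two of its three siRNAs passed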. Calls: active = raised luciferase; inactive = no rise.
Shown is a random part of about 59,000 reagents. In the full data, about 1,510 (2.6%) were called active. 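Calls use total luciferase alone and ignore viability, so some active siRNAs may act by altering cell number.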 Entries without a mark were called inactive. Reagents against one gene are numbered here. No sequences are given here.

no.	Gene	siRNA no.	total luciferase, z-score	total luciferase, % of control	luciferase per cell, z-score	viable cells, % of control
1	F12	1	-0.835	65.3	-1.2	100
2	F12	2	0.517	92.2	2.28	56.5
3	F12	3	-0.137	79.2	-0.684	106
4	COPS3	1	-1.32	55.7	-1.79	99.8
5	COPS3	2	-1.2	58	-1.01	84.5
6	COPS3	3	-0.339	75.1	-1.21	115
7	RIMS1	1	1.77	117	1.2	95.3
8	RIMS1	2	-0.382	74.3	-0.747	101
9	RIMS1	3	0.768	97.2	0.315	99.9
10	RORC	1	0.805	97.9	0.572	94.1
11	RORC	2	0.745	96.7	-0.127	112
12	RORC	3	1.82	118	1.1	98.7
13	ASB14	1	1.91	120	1.26	96.2
14	ASB14	2	0.0627	83.1	0.472	82
15	ASB14	3	-0.565	70.6	-0.947	101
16	TRIM33	1	0.136	84.6	-0.439	106
17	TRIM33	2	0.472	91.3	-0.0853	104
18	TRIM33	3	-0.244	77	-0.85	108
19	SDS	1	-0.0635	80.6	-0.151	93.8
20	SDS	2	2.16	125	2.43	73.6
21	SDS	3	-2.05	41.1	-1.63	70.7
22	P4HB	1	-1.01	61.9	-0.801	85.4
23	P4HB	2	0.828	98.4	0.582	94.3
24	P4HB	3	1.54	113	0.928	98.5
25	RB1CC1	1	-0.12	79.5	0.686	74.2
26	RB1CC1	2	-0.686	68.2	-0.665	90.8
27	RB1CC1	3	0.22	86.3	0.156	92.5
28	SLC2A14	1	-2.5	32.2	-2.62	71.8
29	SLC2A14	2	-0.59	70.1	-0.687	93.9
30	SLC2A14	3	-0.381	74.3	-0.486	94.4
31	AKAP8	1	-1.19	58.2	0.191	61.9
32	AKAP8	2	0.116	84.2	0.323	86.4
33	AKAP8	3	-0.76	66.8	-1.52	111
34	NUDT2	1	-0.439	73.2	-0.69	98
35	NUDT2	2	0.751	96.8	0.577	93
36	NUDT2	3	-0.223	77.4	-0.0367	87.4
37	SFTA2	1	1.4	110	0.703	102
38	SFTA2	2	-0.299	75.9	-0.577	98.8
39	SFTA2	3	0.116	84.2	1.02	71.9
40	H1-10	1	0.124	84.4	-0.744	115
41	H1-10	2	-0.873	64.5	-0.646	85.5
42	H1-10	3	1.36	109	0.492	107
43	EMCN	1	0.994	102	0.568	97.8
44	EMCN	2	-0.573	70.5	-0.0589	80
45	EMCN	3	0.626	94.3	-0.00128	105

Records listed so far whose target name starts with S or s (9):
Gene	siRNA no.	total luciferase, z-score	total luciferase, % of control	luciferase per cell, z-score	viable cells, % of control
SDS	1	-0.0635	80.6	-0.151	93.8
SDS	2	2.16	125	2.43	73.6
SDS	3	-2.05	41.1	-1.63	70.7
SLC2A14	1	-2.5	32.2	-2.62	71.8
SLC2A14	2	-0.59	70.1	-0.687	93.9
SLC2A14	3	-0.381	74.3	-0.486	94.4
SFTA2	1	1.4	110	0.703	102
SFTA2	2	-0.299	75.9	-0.577	98.8
SFTA2	3	0.116	84.2	1.02	71.9

The results go on:
no.	Gene	siRNA no.	total luciferase, z-score	total luciferase, % of control	luciferase per cell, z-score	viable cells, % of control
46	CRYGS	1	0.336	88.6	0.277	92
47	CRYGS	2	0.671	95.2	0.901	83.9
48	CRYGS	3	-1.3	56.1	-1.44	91.4
49	CHD2	1	-0.039	81.1	-0.486	103
50	CHD2	2	0.545	92.7	0.00888	103
51	CHD2	3	0.184	85.5	-0.231	102
52	HOXC12	1	-0.37	74.5	-0.27	89.4
53	HOXC12	2	1.74	116	1.59	85.6
54	HOXC12	3	0.935	100	1.5	75.7
55	NUDT4	1	1.64	114	0.744	105
56	NUDT4	2	2.07	123	1.26	98.6
57	NUDT4	3	-0.972	62.6	-1.73	110
58	SPSB4	1	0.875	99.3	0.424	99.2
59	SPSB4	2	-0.968	62.6	-1.29	98.3
60	SPSB4	3	-1.06	60.9	-0.449	76.6
61	PINLYP	1	-0.857	64.8	-0.967	93.5
62	PINLYP	2	0.319	88.2	0.409	88.5
63	PINLYP	3	0.974	101	0.625	96
64	HDAC9	1	-1.04	61.2	-0.778	83.9
65	HDAC9	2	0.036	82.6	1.15	68.2
66	HDAC9	3	2.99	141	2.49	82
67	ISL1	1	-0.499	72	-1.2	110
68	ISL1	2	1.82	118	1.93	79.5
69	ISL1	3	1.04	103	0.92	90
70	UMODL1	1	-1.33	55.5	-1.33	88.1
71	UMODL1	2	-1.1	59.9	-0.789	82.4
72	UMODL1	3	-1.25	57	-0.774	78.1
73	CLEC4M	1	2.49	131	2.68	72.6
74	CLEC4M	2	1.34	109	2.24	67.2
75	CLEC4M	3	1.98	121	1.2	98.9
